Experimental findings from PubChem BioAssay AID330 (DTP/NCI, 2004) are described below.

The experiment has as its system P388 leukemia ip, CD2F1 mice, survival T/C. The experiment is described as follows: NCI In Vivo Anticancer Drug Screen. Data for tumor model P388 Leukemia (intraperitoneal) in CD2F1 (CDF1) mice. The note with it: T/C endpoint: median survival time, higher T/C = longer survival.
The mark [1] stands for this setting: dose: 100.0 mg/kg/injection, schedule: Q04DX003 (ip), vehicle: saline sonified.

The list is a part of this screen's results and no random one: it gathers tests that were run many times, whatever their T/C, doses with no T/C, and many T/C values between a quarter and a half above the control. Further doses and runs are listed elsewhere. T/C: endpoint of the treated group in % of that of the vehicle group. Some doses have a count of surviving animals in place of a T/C: the source holds a T/C of zero for them, seemingly a mark for toxic or unscored doses. Some doses without a T/C left all or most animals alive at the check, yet need not have been tolerated: the source hardly ever lists a survival T/C far under the control, and the zero likely stands for such cases as well. Counts of survivors are from the toxicity check (mostly the fifth day) where no day follows; animals may have died later. Schedules are NCI's codes, taken here to give the interval after Q, in days (D) or hours (H), and the number of doses after X. Some doses were run more than once; the results are listed from low to high. Where survival is the endpoint, this PubChem deposit counts one and a half times the control or more as active, and values a quarter to a half above the control carry no call in these data; other NCI protocols may use other cut-offs. Some T/C values carry the count of animals alive at the toxicity check (mostly the fifth day); without a count, all were alive then.

Consider `Cc1c2ccnc(C#N)c2c(C)c2c1[nH]c1ccccc12`, for which the survivor count (dose: 12.5 mg/kg/injection, schedule: Q04DX003 (ip), vehicle: distilled water + Tween-80) is on record as 6 of 6; the survivor count (dose: 25.0 mg/kg/injection, schedule: Q04DX003 (ip), vehicle: distilled water + Tween-80) is listed as 6 of 6; the survivor count (dose: 50.0 mg/kg/injection, schedule: Q04DX003 (ip), vehicle: distilled water + Tween-80) was 6 of 6; the survivor count (dose: 100.0 mg/kg/injection, schedule: Q04DX003 (ip), vehicle: distilled water + Tween-80) is listed as 5 of 6; the survivor count (dose: 200.0 mg/kg/injection, schedule: Q04DX003 (ip), vehicle: distilled water + Tween-80) is 6 of 6.

With `O=C(O)C(O)C(O)C(=O)O.O=C(O)C(O)C(O)C(=O)O.[O]=[V].[O]=[V]` (stereo not given), the survivor count is on record as 1 of 6 (dose: 50.0 mg/kg/injection, schedule: Q01DX009 (ip), vehicle: saline); 1 of 6 (dose: 60.0 mg/kg/injection, schedule: Q01DX009 (ip), vehicle: saline); 3 of 6 under setting [1]; 0 of 6 (dose: 120.0 mg/kg/injection, schedule: Q01DX009 (ip), vehicle: saline).

Regarding `CCOC(=O)C1(c2ccccc2)CCN(c2c3ccccc3nc3ccccc23)CC1`, the survivor count reads like this: (dose: 200.0 mg/kg/injection, schedule: Q04DX003 (ip), vehicle: Klucel (hydroxypropylcellulose) (HPC)) 3 of 6; (dose: 400.0 mg/kg/injection, schedule: Q04DX003 (ip), vehicle: Klucel (hydroxypropylcellulose) (HPC)) 3 of 6.

On to `CCOC(=O)c1ccc(NC(=O)N(C2CCCCC2)C2CCCCC2)cc1`, for which the survivor count is 6 of 6 (dose: 30.0 mg/kg/injection, schedule: Q01DX005 (ip), vehicle: Klucel (hydroxypropylcellulose) (HPC)); 6 of 6 (dose: 60.0 mg/kg/injection, schedule: Q01DX005 (ip), vehicle: Klucel (hydroxypropylcellulose) (HPC)); 5 of 6 and 6 of 6 (dose: 120.0 mg/kg/injection, schedule: Q01DX005 (ip), vehicle: Klucel (hydroxypropylcellulose) (HPC)).

Regarding `Cc1ccc(S(=O)(=O)NN=C(C(=O)O)C(=O)O)cc1`, the survivor count by setting is: (dose: 100.0 mg/kg/injection, schedule: Q01DX009 (ip), vehicle: distilled water + Tween-80) 3 of 6; (dose: 400.0 mg/kg/injection, schedule: Q01DX009 (ip), vehicle: distilled water + Tween-80) 0 of 6.

`COC(=O)c1nc(N)nc(C(=O)OC)c1C(=O)c1cccc2ccccc12`: the survivor count (dose: 240.0 mg/kg/injection, schedule: Q01DX005 (ip), vehicle: Klucel (hydroxypropylcellulose) (HPC)) is 0 of 6.

On to `CNc1ccc(Nc2c3ccccc3nc3ccccc23)cc1`, for which the T/C (dose: 25.0 mg/kg/injection, schedule: Q04DX002 (ip), vehicle: distilled water + Tween-80) is 126 % of control and the T/C (dose: 50.0 mg/kg/injection, schedule: Q04DX002 (ip), vehicle: distilled water + Tween-80) was 136 % of control. Further, the survivor count was 0 of 6 and 2 of 6 (dose: 200.0 mg/kg/injection, schedule: Q04DX002 (ip), vehicle: distilled water + Tween-80); 0 of 6 (dose: 400.0 mg/kg/injection, schedule: Q04DX002 (ip), vehicle: distilled water + Tween-80).

With `CC(=O)OC1C(O)C(C)OC(OC2C(OC(=O)C3CCC4C(C3)OC3(CC(OC(=O)/C=C/c5ccccc5)C(C)CO3)C43CO3)OC(CO)C(O)C2OC(C)=O)C1O` (stereo not given), the T/C reads like this: (dose: 6.0 mg/kg/injection, schedule: Q01DX009 (ip), vehicle: saline + alcohol) 129 and 136 % of control; (dose: 12.0 mg/kg/injection, schedule: Q01DX009 (ip), vehicle: saline + alcohol) 131 and 143 % of control. Moreover, the survivor count (dose: 24.0 mg/kg/injection, schedule: Q01DX009 (ip), vehicle: saline + alcohol) is listed as 3 of 5.

For `O=c1ssc(=Nc2ccccc2)n1-c1ccccc1`, the T/C was 129 % of control (dose: 50.0 mg/kg/injection, schedule: Q01DX009 (ip), vehicle: Klucel (hydroxypropylcellulose) (HPC)) and 127 % of control (dose: 400.0 mg/kg/injection, schedule: Q01DX009 (ip), vehicle: Klucel (hydroxypropylcellulose) (HPC)).

For `CC1(C)N=C(N)N=C(N)N1c1cccc(CC(=O)Nc2ccccc2)c1`, the survivor count under setting [1] is reported as 4 of 6; the survivor count (dose: 200.0 mg/kg/injection, schedule: Q04DX003 (ip), vehicle: saline sonified) is on record as 3 of 6; the survivor count (dose: 400.0 mg/kg/injection, schedule: Q04DX003 (ip), vehicle: saline sonified) is given as 3 of 6.

With `O=C(CCl)NN=C1C2CC3CC(C2)CC1C3`, the survivor count (dose: 200.0 mg/kg/injection, schedule: Q01DX009 (ip), vehicle: saline with Tween-80) is recorded as 1 of 6 and the survivor count (dose: 400.0 mg/kg/injection, schedule: Q01DX009 (ip), vehicle: saline with Tween-80) is on record as 0 of 6.

For the compound `CCCCC(=O)OCC(=O)[C@]1(O)Cc2c(O)c3c(c(O)c2[C@@H](OC2CC(NC(=O)C(F)(F)F)C(O)C(C)O2)C1)C(=O)c1c(OC)cccc1C3=O` (stereo not given in full), the T/C was 138 % of control (dose: 1.4 mg/kg/injection, schedule: Q01DX009 (ip), vehicle: clinical formulation); 125 % of control (dose: 2.0 mg/kg/injection, schedule: Q04DX003 (ip), vehicle: saline with Tween-80); 147 % of control (dose: 2.33 mg/kg/injection, schedule: Q01DX009 (ip), vehicle: clinical formulation, evaluated on day 45); 137 % of control (dose: 2.33 mg/kg/injection, schedule: Q01DX009 (ip), vehicle: clinical formulation, evaluated on day 60); 148 % of control (dose: 3.89 mg/kg/injection, schedule: Q01DX009 (ip), vehicle: clinical formulation, evaluated on day 45); 134 % of control (dose: 3.89 mg/kg/injection, schedule: Q01DX009 (ip), vehicle: clinical formulation, evaluated on day 60). The T/C is 142 % of control (dose: 6.48 mg/kg/injection, schedule: Q01DX009 (ip), vehicle: clinical formulation); 127 and 136 % of control (dose: 16.0 mg/kg/injection, schedule: Q04DX003 (ip), vehicle: saline with Tween-80); 138 % of control (dose: 18.75 mg/kg/injection, schedule: Q04DX003 (ip), vehicle: clinical formulation); 143 % of control (dose: 19.4 mg/kg/injection, schedule: Q04DX003 (ip), vehicle: clinical formulation); 133 % of control [6 of 7 alive] (dose: 21.6 mg/kg/injection, schedule: Q04DX003 (ip), vehicle: clinical formulation); 125, 133, 138 % of control (dose: 32.0 mg/kg/injection, schedule: Q04DX003 (ip), vehicle: saline with Tween-80). Further, the T/C reads like this: (dose: 37.5 mg/kg/injection, schedule: Q04DX003 (ip), vehicle: clinical formulation) 146 % of control; (dose: 64.0 mg/kg/injection, schedule: Q04DX003 (ip), vehicle: saline with Tween-80) 128 % of control; (dose: 75.0 mg/kg/injection, schedule: Q04DX003 (ip), vehicle: clinical formulation) 132 % of control; (dose: 150.0 mg/kg/injection, schedule: Q04DX003 (iv), vehicle: saline with Tween-80) 133 % of control; (dose: 300.0 mg/kg/injection, schedule: Q04DX003 (iv), vehicle: saline with Tween-80) 130 % of control [5 of 6 alive]. The survivor count is, setting by setting: (dose: 40.0 mg/kg/injection, schedule: Q01DX004 (ip), vehicle: distilled water + Tween-80) 10 of 10; (dose: 50.0 mg/kg/injection, schedule: Q01DX004 (ip), vehicle: distilled water + Tween-80) 10 of 10; (dose: 50.0 mg/kg/injection, schedule: Q01DX009 (ip), vehicle: clinical formulation) 8 of 8; (dose: 60.0 mg/kg/injection, schedule: Q01DX004 (ip), vehicle: distilled water + Tween-80) 7 of 10; (dose: 300.0 mg/kg/injection, schedule: Q04DX003 (ip), vehicle: saline with Tween-80) 5 of 6; (dose: 600.0 mg/kg/injection, schedule: Q04DX003 (ip), vehicle: saline with Tween-80) 4 of 6. Besides, the survivor count (dose: 2048.0 mg/kg/injection, schedule: Q04DX003 (ip), vehicle: saline with Tween-80) is listed as 2 of 6 on day 9.
